Source: patent publication US10022308B2, “Wipe and methods for improving skin health” (Kimberly-Clark Worldwide, Inc., priority 2003, dated 2018)
Some of these results come from one statement about several compounds together. For at least one compound, name, drawing or mass did not settle the structure.

Test system: Lactobacillus acidophilus (ATCC #:314)
Experiment: Adhesion assay for Lactobacillus acidophilus on synthetic skin substrate
Format: cell-based
Conditions: increase relative to absence of botanical
Protocol: The protocols for testing the ability of botanical compounds to elicit any of these desired effects are set forth in the Examples. In general, the ability of a botanical compound to affect the adherence of an organism to skin is determined by comparing the adherence of the organism to skin in the presence of the botanical compound, to the adherence of the organism to skin in the absence of the botanical compound. If the amount of adherence in the presence of the botanical compound is 150% or greater than the amount of adherence in the absence of the botanical compound, then the botanical compound is an adherence promoter for that organism. […]
Results are given in Table 1, which gives the percent adherence to the skin of P. mirabilis, S. epidermidis, P. aeruginosa, L. acidophilus, and C. albicans for the various botanical compound samples, relative to the control. The percentage is based on the number of cells that adhered to the skin for the botanical samples as compared to the number of cells that adhered to the skin in the control, as determined by the AlamarBlue® levels. […]
The next day, the optical density (650 nm) of the Lactobacilli broth culture was read. […] AlamarBlue® levels were read (emission levels read at 590 nm) in an Ascent plate reader (excitation level of 544 nm) at 2 and 3 hours. […]

CCCC(O)CO (stereo not shown) [Hydrolite-5]
increase of the adherence of L. acidophilus to the surface of skin or mucosa: at least 50%
